One assay has as its target T1, Spir520‐GST (Drosophila) (UniProt Q9U1K1).
T1 sequence: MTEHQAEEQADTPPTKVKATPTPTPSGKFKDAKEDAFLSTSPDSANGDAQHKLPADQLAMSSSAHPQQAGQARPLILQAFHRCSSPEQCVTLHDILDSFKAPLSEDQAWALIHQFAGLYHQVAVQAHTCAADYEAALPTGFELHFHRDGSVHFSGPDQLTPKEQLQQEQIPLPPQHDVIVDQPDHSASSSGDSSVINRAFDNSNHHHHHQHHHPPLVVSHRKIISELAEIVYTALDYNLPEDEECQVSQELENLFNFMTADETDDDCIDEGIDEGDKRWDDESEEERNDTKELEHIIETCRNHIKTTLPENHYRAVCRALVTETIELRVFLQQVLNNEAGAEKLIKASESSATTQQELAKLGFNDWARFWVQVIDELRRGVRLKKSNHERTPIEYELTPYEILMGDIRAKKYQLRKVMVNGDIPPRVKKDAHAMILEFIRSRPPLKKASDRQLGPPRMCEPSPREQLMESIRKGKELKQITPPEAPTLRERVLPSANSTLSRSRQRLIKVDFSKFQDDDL
As to the kind of experiment: pull-down; purified recombinant proteins at equimolar concentrations in cold PBS, glutathione resin holding the GST-tagged Spir, 4°C 2.5 h, three washes with PBS; both purified.

Another assay concerns the target T2, Rab11‐3xHA (Drosophila) (UniProt O18335).
T2 sequence: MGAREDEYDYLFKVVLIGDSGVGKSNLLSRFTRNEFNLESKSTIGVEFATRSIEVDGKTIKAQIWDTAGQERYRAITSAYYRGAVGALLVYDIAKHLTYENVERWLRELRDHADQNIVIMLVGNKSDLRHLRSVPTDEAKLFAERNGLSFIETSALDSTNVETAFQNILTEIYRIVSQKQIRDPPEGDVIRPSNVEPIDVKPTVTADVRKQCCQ
As to the kind of experiment: co-IP; ovary lysates with HA-tagged protein and with GFP-tagged protein mixed in equal volumes, magnetic HA‐beads, 4°C 2.5 h; 50 mM HEPES pH 7.4, 150 mM KCl, 1 mM EDTA, 1 mM MgCl2, 10% glycerol, 0.2% NP‐40; blot with GFP and HA‐tag antibodies.

The results in this text go back to paper PMC13648917.

These are yes or no findings as the source states them, for the method shown. For some assays here: In cells and extracts the contact can be indirect. Some binding calls cover weakened binding; strength is not graded here. For some assays here: Tags and fused reporters may be left off the sequences shown.

For “His‐MyoV‐GTD (from UniProt A1Z6Z8 1411-1800) (domain or fragment)”, the binding entry with Spir520‐GST (Drosophila) is “binds”.
Take MyoV‐GFP (from UniProt A1Z6Z8 1-1800): in the assay with Rab11‐3xHA (Drosophila), the binding result was “binds”.
